Results are given in words; binding and its absence hold for the method and conditions named. For part of these data: In cells and extracts the contact can be indirect.
What was measured:
[1] = target: purified human NPM1-214A/217A mutant protein (human) (UniProt P06748); assay: native gel or EMSA; in vitro NPM1 oligomerization assay: purified NPM1 sonicated in binding buffer (50 mM Tris pH 7.4, 150 mM NaCl, 0.5% NP-40), incubated at RT with the in vitro transcribed first ~2000 nt of LETN, 10% native PAGE, anti-NPM1 blot; both purified
[2] = target: purified human NPM1-214A/217A mutant protein (human) (UniProt P06748); assay: native gel or EMSA; in vitro NPM1 oligomerization assay as a5 but without functional LETN (no RNA, scrambled RNA of similar length, or LETN lacking the three NPM1-binding fragments); both purified
[3] = target: GFP- and mCherry-tagged NPM1 (full-length), exogenously expressed in HUH7 cells (human) (UniProt P06748); assay: FRET or BRET; FLIM-FRET as a3, but in HUH7 cells transfected with LETN siRNA (LETN knockdown)

Amino acid sequences for entries named in this document (tags omitted). A change or cut given only in a name is not applied to a line headed by its entry. Chains listed by the source or under a name are the forms on record and can include a tag or linker.
UniProt P06748: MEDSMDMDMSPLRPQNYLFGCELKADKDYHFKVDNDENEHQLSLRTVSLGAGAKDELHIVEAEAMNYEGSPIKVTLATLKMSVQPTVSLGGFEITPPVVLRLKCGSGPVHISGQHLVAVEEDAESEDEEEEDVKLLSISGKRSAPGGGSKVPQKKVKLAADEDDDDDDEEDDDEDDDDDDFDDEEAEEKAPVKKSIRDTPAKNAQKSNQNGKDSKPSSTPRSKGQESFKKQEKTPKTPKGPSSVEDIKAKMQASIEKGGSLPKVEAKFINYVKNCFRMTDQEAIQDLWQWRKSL
purified human NPM1-214A/217A mutant protein (P06748, form named): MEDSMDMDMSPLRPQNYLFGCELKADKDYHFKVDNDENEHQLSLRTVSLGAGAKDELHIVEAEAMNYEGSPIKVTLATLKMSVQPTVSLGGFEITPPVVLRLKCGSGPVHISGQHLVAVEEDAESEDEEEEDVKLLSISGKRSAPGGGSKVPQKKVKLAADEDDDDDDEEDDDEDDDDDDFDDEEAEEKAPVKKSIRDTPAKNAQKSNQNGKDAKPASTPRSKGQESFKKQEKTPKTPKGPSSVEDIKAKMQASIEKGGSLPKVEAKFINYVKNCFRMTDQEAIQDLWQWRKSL

binding [1]	binding [2]	binding [3]	Substance
no binding	no binding		purified human NPM1-214A/217A mutant protein (from UniProt P06748 1-294)
		no binding (condition: LETN knockdown)	GFP- and mCherry-tagged NPM1 (full-length), exogenously expressed in HUH7 cells (from UniProt P06748 1-294)

Reference: paper PMC8169757
